Measured values taken from patent US20220356211A1.
No constants are given. Whether binding was seen depends on the method and setting. Some results given as binding are weak or reduced against the parent protein; the word gives no strength. For some assays here: Sequences can lack the tags named with a protein.

Protein sequences, listed by entry. Tags and fused reporters are not part of them. Lines headed by an entry give the natural chain unless they say otherwise; changes in a name come on top.
UniProt P06756: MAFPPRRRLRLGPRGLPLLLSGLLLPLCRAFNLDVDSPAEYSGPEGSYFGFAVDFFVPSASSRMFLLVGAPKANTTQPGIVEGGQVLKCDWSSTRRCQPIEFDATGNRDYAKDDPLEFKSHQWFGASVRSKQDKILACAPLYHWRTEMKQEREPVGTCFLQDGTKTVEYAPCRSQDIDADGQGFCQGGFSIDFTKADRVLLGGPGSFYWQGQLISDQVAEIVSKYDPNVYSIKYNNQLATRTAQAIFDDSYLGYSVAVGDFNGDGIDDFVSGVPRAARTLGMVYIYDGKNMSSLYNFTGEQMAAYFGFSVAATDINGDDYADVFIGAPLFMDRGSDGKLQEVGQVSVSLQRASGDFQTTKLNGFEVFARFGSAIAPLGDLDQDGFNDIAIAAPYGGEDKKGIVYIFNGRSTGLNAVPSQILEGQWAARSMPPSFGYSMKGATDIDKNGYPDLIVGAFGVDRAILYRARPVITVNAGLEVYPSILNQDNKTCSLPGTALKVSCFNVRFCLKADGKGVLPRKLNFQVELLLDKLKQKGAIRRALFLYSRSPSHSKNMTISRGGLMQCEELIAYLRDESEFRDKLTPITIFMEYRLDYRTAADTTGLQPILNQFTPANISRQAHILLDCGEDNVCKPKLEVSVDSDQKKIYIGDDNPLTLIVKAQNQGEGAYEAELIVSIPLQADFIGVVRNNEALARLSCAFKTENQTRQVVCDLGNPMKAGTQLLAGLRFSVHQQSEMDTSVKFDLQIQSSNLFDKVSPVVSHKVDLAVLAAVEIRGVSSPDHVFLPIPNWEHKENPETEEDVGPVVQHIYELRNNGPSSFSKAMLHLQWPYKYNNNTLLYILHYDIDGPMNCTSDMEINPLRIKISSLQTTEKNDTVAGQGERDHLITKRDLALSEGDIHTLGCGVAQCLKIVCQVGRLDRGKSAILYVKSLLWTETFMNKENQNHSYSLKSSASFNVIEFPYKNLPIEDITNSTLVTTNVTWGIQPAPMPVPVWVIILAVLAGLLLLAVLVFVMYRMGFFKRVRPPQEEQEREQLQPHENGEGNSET

Tests used:
[1] = molecular target: T1, wild-type MD2 (Myeloid Differentiation factor 2) with 6xHis tag, recombinant, made in bacteria (human) (UniProt Q9Y6Y9); assay: ELISA-type binding assay, WT MD2 coated, soluble αvβ3 5 µg/ml with 1 mM MnCl2, anti-His HRP detection
T1 sequence: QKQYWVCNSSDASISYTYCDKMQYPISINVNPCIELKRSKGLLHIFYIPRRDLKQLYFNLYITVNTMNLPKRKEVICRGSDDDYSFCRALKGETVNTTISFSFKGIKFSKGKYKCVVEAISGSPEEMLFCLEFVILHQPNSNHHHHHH

[2] = molecular target: T1, wild-type MD2 (Myeloid Differentiation factor 2) with 6xHis tag, recombinant, made in bacteria (human); assay: ELISA-type binding assay (preliminary studies)
[3] = molecular target: T1, wild-type MD2 (Myeloid Differentiation factor 2) with 6xHis tag, recombinant, made in bacteria (human); assay: ELISA-type binding assay; cation-dependent, blocked by heating MD2 (80° C. for 10 min)
[4] = molecular target: T2, MD2 K130E-K132E mutant (human) (UniProt Q9Y6Y9); assay: ELISA-type binding assay, MD2 mutant coated, soluble αvβ3
T2 sequence: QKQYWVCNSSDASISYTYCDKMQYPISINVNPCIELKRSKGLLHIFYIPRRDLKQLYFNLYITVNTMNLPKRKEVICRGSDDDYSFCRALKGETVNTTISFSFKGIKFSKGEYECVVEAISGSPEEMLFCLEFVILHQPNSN

[5] = molecular target: T1, wild-type MD2 (Myeloid Differentiation factor 2) with 6xHis tag, recombinant, made in bacteria (human); assay: ELISA-type binding assay

- binding [1]: binds
- binding [2]: binds
- binding [3]: binds
- binding [4]: binds
- binding [5]: binds
Substance: recombinant soluble integrin αvβ3 (from UniProt P06756 31-992; P05106 27-718) (receptor)
